What all share (assay): log2 fold change, soluble protein after heating vs DMSO (PISA); higher = thermal stabilisation; K562 lysate, 10 uM; active = over 0.2 and 3.5 SD of the protein, either way, in both replicates (recomputed)
Compound in assay [1]: C1=CC=C(C=C1)[C@H](COC2=CC3=C(C=C2)NC(=O)N3)NC(=O)C4=CC=CN(C4=O)CC5=CC(=C(C=C5)F)F
An outline of the steps: (§1)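 Following dounce homogenisation of K562 pellets in PBS pH 7.4 with 1 mM MgCl2, crude extract at 1 mg/mL protein was incubated for 30 min with 10 μM compound. Aliquots were then heated for 3 min over 48°C-58°C and pooled, NP-40 was added to 0.5% at 4°C, and soluble protein was recovered as the supernatant at 21,000xg for 90 min. Channel-sum-equalised TMTpro 16plex LC-MS/MS quantified this protein. Each value, from duplicates, is a log-two fold change in thermal stability relative to solvent controls.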

Amino acid sequences for entries named in this document (tags omitted). A change or cut given only in a name is not applied to a line headed by its entry.
UniProt Q9H6S3: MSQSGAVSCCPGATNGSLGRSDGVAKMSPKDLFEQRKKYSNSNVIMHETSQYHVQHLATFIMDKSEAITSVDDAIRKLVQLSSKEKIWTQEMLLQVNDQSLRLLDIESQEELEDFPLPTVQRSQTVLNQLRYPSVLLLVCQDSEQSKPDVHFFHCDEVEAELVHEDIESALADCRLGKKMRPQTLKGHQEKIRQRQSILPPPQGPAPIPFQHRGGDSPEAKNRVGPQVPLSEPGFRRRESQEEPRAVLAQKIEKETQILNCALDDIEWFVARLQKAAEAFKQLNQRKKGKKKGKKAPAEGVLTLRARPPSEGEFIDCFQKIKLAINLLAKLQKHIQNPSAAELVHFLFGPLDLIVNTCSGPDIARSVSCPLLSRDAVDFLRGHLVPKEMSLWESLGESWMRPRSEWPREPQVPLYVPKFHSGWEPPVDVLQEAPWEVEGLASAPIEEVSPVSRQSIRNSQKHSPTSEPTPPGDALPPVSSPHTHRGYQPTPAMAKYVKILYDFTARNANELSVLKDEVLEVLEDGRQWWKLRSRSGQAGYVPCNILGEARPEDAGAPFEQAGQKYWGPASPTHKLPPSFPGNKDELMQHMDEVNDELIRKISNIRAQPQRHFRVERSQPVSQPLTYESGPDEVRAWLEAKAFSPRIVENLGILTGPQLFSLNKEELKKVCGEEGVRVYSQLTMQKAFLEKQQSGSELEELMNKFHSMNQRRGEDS
UniProt A1L3X0: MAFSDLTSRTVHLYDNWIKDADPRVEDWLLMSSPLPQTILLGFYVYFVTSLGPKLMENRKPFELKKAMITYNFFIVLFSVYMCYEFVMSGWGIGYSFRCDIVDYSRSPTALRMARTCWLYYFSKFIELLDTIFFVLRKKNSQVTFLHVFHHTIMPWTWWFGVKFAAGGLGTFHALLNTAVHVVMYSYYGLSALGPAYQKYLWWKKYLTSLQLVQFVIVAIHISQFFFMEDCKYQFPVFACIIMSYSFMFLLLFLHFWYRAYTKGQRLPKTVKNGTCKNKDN
UniProt P0DP91, whole entry, looked up: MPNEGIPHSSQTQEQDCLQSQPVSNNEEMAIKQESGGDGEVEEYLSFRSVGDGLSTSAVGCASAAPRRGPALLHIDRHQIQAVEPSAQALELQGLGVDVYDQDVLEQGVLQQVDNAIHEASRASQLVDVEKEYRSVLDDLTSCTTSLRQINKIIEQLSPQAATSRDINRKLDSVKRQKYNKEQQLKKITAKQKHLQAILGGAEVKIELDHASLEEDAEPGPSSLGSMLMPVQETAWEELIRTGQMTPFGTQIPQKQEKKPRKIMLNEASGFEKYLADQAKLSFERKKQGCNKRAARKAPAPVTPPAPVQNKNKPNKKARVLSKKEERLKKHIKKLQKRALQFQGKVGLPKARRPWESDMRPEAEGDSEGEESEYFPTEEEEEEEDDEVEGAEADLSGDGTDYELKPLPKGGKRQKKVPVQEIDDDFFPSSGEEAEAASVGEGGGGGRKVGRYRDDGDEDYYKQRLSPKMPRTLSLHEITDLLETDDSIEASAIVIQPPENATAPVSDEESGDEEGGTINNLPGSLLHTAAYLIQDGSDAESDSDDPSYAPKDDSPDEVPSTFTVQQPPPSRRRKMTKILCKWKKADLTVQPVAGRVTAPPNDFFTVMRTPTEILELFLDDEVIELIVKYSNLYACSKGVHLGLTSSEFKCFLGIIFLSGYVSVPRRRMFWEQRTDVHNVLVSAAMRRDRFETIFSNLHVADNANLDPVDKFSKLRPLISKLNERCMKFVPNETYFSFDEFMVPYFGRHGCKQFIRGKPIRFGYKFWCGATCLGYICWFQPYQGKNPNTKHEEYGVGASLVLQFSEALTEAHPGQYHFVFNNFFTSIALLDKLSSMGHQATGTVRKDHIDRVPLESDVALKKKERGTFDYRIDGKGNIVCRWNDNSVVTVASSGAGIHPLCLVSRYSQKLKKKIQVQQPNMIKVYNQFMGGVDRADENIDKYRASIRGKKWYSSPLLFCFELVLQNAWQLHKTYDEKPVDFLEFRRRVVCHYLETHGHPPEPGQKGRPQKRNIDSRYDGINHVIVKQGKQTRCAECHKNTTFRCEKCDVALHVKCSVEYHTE
UniProt Q9Y6I3: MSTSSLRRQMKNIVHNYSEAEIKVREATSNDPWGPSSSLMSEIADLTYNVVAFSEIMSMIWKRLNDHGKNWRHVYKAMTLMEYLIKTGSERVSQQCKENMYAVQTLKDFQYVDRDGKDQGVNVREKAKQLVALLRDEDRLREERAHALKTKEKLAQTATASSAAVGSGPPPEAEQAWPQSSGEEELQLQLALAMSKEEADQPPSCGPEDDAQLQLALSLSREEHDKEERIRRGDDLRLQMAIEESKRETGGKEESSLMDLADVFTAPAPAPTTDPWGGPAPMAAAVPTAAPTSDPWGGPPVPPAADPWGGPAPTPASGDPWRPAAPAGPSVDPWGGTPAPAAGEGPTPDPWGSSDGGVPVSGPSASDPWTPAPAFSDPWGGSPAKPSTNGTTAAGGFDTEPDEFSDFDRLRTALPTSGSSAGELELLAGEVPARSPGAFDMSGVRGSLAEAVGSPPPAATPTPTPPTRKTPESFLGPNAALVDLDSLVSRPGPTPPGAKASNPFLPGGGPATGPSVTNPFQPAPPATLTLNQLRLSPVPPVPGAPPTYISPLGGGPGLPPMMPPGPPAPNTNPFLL
UniProt Q9NQZ7: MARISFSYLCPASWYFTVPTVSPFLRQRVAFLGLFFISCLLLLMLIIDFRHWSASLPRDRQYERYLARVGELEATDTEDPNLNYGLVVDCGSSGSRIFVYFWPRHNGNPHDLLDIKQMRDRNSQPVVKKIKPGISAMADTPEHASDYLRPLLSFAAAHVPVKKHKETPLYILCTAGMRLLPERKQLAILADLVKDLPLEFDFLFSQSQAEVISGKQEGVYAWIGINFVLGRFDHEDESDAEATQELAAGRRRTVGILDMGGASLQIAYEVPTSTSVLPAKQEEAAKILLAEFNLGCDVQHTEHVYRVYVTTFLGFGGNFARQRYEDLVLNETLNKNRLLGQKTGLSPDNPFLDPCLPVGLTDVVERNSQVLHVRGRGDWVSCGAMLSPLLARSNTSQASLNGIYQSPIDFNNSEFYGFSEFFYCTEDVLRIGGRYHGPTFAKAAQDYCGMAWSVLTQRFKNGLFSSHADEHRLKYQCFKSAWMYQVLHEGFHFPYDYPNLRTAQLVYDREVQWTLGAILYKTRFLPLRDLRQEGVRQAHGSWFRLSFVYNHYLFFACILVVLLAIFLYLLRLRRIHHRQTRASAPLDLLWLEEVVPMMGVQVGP
UniProt Q96JJ3: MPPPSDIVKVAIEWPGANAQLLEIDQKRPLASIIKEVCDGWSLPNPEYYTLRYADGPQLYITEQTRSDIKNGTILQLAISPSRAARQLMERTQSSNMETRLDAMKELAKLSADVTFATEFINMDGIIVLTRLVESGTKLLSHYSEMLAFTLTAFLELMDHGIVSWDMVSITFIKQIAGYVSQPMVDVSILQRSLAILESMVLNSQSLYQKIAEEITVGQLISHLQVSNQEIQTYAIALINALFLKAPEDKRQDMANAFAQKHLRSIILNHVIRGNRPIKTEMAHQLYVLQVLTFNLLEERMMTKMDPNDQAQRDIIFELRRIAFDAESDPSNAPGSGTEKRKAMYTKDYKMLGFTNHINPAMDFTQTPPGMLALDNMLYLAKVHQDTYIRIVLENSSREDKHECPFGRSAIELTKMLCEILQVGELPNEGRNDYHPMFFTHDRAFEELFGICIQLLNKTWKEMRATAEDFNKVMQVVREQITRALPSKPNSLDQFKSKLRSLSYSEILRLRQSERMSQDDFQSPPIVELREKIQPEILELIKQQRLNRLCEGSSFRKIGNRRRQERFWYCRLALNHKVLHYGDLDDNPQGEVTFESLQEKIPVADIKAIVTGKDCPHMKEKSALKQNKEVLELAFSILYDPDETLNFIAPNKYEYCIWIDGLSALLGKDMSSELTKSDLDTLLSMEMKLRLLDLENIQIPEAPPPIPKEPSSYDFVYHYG
UniProt O43491, whole entry, looked up: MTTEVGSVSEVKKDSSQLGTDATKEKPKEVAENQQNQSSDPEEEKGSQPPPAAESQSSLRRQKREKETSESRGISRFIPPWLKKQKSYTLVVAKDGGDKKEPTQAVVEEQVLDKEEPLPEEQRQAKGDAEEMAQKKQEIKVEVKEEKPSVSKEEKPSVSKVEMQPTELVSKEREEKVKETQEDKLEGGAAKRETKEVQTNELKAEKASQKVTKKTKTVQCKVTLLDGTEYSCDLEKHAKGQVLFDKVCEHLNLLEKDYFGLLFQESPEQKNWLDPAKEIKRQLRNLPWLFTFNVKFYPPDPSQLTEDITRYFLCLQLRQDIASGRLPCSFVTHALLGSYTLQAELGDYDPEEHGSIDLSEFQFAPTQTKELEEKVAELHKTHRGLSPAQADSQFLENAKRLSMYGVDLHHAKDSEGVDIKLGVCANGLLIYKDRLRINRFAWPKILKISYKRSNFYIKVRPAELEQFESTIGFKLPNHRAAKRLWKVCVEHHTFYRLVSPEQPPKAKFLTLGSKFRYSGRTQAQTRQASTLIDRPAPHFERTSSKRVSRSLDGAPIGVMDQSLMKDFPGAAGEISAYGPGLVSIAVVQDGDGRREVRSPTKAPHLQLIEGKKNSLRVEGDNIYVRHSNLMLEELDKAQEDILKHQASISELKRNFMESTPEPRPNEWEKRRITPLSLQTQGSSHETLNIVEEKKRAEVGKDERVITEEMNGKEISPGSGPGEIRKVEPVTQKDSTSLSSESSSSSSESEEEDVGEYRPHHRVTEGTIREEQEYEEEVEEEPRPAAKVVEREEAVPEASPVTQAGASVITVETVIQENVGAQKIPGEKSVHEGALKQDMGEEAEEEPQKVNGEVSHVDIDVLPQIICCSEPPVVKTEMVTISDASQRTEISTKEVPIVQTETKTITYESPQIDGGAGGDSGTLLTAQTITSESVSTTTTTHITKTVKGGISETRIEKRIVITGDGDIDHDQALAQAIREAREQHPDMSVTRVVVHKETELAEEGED
UniProt Q8N5X7: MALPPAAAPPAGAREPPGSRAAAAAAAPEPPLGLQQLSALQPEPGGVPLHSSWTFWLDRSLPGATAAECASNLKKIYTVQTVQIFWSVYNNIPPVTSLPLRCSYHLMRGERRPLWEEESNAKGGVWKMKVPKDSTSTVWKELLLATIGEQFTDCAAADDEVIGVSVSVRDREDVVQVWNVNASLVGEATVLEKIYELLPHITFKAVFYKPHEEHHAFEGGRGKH
UniProt Q9HCM4: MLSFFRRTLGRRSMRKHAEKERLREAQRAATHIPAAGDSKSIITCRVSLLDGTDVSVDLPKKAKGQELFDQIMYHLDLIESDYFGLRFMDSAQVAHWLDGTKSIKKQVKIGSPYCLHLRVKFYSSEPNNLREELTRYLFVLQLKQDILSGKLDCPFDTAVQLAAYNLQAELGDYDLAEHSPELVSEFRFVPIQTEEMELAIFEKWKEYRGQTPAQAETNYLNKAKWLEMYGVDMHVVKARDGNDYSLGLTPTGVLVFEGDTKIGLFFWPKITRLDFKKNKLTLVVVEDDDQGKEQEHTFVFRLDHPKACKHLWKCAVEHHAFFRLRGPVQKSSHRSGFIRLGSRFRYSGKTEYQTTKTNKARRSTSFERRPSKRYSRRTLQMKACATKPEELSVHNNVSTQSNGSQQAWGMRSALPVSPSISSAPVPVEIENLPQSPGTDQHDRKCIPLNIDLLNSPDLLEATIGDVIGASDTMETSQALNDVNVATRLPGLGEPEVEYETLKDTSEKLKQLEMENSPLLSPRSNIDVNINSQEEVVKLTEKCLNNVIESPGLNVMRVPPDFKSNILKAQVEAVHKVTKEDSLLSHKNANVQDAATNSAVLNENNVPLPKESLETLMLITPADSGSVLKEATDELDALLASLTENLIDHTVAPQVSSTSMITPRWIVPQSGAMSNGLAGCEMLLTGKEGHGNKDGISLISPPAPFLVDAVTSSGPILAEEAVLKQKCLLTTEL
UniProt P50548: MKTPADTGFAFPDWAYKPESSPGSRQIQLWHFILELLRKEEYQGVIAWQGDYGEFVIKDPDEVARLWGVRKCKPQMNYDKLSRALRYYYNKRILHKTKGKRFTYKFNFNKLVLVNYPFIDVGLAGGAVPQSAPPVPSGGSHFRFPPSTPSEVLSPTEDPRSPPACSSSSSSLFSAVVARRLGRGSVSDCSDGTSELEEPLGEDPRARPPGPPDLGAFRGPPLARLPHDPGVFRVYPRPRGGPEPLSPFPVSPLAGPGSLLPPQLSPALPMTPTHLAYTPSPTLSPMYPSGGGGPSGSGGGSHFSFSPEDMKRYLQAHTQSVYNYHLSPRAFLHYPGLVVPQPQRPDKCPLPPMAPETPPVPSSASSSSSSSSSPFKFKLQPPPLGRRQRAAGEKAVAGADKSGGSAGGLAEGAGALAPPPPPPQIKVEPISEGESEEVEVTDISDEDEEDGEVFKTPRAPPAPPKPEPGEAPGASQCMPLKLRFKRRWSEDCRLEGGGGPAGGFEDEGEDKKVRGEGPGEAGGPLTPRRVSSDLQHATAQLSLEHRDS

Compound in assay [2]: CC1=C(SC2=C1C(=N[C@H](C3=NN=C(N32)C)CC(=O)N)C4=CC=C(C=C4)Cl)C
Put shortly:
as §1

Compound in assay [3]: c1ccc([C@@H]2C[C@H]2NC2CCNCC2)cc1
Put shortly: as §1

Compound in assay [4]: CC1=C2C(=CC=C1)N=C(N(C2=O)C3=CC=CC=C3C)CN4C=NC5=C(N=CN=C54)N
An outline of the steps:
as §1

Compound in assay [5]: Cc1sc2c(c1C)C(c1ccc(Cl)cc1)=N[C@@H](CC(=O)OC(C)(C)C)c1nnc(C)n1-2
Put shortly:
as §1

The other results are listed elsewhere or left out.

On to EIF3B (UniProt C9JQN7), for which the figures for the log2 fold change in assay [1], in assay [2] and in assay [3] were inactive: -0.009, inactive: 0.009 and inactive: -0.1, respectively.
For EIF4A1 (UniProt J3KS25), in assay [4], the log2 fold change was inactive: 0.012.
As for EPS8L2 (UniProt Q9H6S3), the log2 fold change in assay [1] was inactive: 0.124; in assay [2], inactive: -0.09; in assay [5], inactive: 0.008; in assay [3], inactive: 0.037.
Regarding ELOVL7 (UniProt A1L3X0), the log2 fold change in assay [1] is inactive: -0.028; in assay [2], inactive: 0.025; in assay [5], inactive: 0.058.
For the target ERCC6 (UniProt P0DP91), the log2 fold change in assay [1] is inactive: 0; in assay [2], inactive: -0.071; in assay [5] it was inactive: 0.179.
EPN2 (UniProt I3L356): the log2 fold change is inactive: 0.12 in assay [1], inactive: -0.062 in assay [2] and inactive: -0.235 in assay [3].
On to EIF3G (UniProt K7ENA8), for which the log2 fold change was inactive: -0.067 in assay [1], inactive: 0.056 in assay [2], inactive: -0.194 in assay [5] and inactive: 0.013 in assay [3].
Regarding EPN1 isoform 3 (UniProt Q9Y6I3), the log2 fold change was inactive: -0.127 in assay [5] and inactive: -0.028 in assay [3].
As for ENTPD7 (UniProt Q9NQZ7), the log2 fold change in assay [4] was inactive: 0.041; in assay [3], inactive: 0.064.
Take EPS15L1 (UniProt M0QY01): the figures for the log2 fold change in assay [4], in assay [5] and in assay [3] were inactive: 0.008, inactive: -0.12 and inactive: -0.049, respectively.
In the same order, the values of ELMO2 (UniProt Q96JJ3) are inactive: 0.034, inactive: -0.019 and inactive: 0.05.
For EPB41L2 isoform 4 (UniProt O43491), the log2 fold change in assay [1] is inactive: -0.199; in assay [2], inactive: 0.252; in assay [3] it was inactive: -0.028.
As to ELAVL4 (UniProt P26378), the log2 fold change in assay [4] was inactive: 0.018; in assay [5], inactive: -0.079; in assay [3] it was inactive: 0.095.
As for EIF4E3 (UniProt Q8N5X7), the log2 fold change in assay [4] is inactive: 0.116; in assay [3], inactive: -0.079.
For EPB41L5 (UniProt Q9HCM4), the log2 fold change in assay [1] is inactive: -0.003; in assay [2], inactive: 0.09; in assay [3], inactive: 0.092.
As for ERF (UniProt P50548), the log2 fold change in assay [4] was inactive: -0.11; in assay [5], inactive: -0.107.

These data come from the supplement of paper PMC10849652.
